This is one part of the list.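 The calls were made as follows: active = dose-dependent thermal stabilisation significant by F-test of dose-response against flat model at 10% FDR; inactive = not significant.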
Each target was assayed with Nc1nc2c(ncn2[C@@H]2O[C@H](COP(=O)(O)OP(=O)(O)OP(=O)(O)O)[C@@H](O)[C@H]2O)c(=O)[nH]1 (assay: dose-dependent thermal stabilisation call (2D-TPP, DLPTP, 10% FDR) (binary (1 = stabilised)); higher = stabilised by the compound). Conditions: system: Jurkat gel-filtered lysate; concentration range 1-500 µM.
Experimental: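 2D thermal proteome profiling in gel-filtered Jurkat E6.1 lysate (2 mg/ml) treated with NaGTP (0, 1, 10, 100, 500 uM) for 10 min at room temperature, then heated 3 min at one of 12 temperatures (42-63.9 C). Soluble protein was quantified by TMT10 MS. The value is the DLPTP call of the paper: dose-dependent thermal stabilisation over all temperatures at 10% FDR (F-test of a dose-response against a flat model); one experiment, one call per tested protein.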

By UniProt entry, the sequences of proteins in these tests, tags left out. Where a name states a change or a piece, a line headed by the entry shows the natural chain unless it says otherwise.
UniProt Q6IQ49: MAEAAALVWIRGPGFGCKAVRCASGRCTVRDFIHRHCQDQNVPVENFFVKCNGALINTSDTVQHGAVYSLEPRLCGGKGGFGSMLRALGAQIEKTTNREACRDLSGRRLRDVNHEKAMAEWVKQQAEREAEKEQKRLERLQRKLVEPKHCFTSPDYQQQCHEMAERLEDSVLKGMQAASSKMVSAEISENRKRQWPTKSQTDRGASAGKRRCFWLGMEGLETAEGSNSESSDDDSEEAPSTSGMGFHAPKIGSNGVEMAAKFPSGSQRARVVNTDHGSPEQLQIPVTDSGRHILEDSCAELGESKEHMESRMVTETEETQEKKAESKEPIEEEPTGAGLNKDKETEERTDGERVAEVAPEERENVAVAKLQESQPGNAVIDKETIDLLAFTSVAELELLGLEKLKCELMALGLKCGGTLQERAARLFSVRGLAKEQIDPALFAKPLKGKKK
UniProt Q9HD89: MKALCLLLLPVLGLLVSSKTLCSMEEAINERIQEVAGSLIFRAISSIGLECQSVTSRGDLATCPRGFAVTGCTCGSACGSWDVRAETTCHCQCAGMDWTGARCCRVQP
UniProt Q8WTS6: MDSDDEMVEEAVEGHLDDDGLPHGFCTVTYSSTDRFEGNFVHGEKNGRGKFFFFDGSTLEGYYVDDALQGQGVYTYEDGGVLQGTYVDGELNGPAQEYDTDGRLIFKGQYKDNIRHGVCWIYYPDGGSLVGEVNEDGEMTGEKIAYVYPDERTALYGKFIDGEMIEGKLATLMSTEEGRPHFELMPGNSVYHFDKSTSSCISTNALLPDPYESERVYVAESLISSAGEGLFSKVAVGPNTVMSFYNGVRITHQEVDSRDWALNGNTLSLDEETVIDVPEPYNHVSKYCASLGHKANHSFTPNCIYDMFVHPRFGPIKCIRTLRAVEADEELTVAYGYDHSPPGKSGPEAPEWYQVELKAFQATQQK
UniProt Q96FV2: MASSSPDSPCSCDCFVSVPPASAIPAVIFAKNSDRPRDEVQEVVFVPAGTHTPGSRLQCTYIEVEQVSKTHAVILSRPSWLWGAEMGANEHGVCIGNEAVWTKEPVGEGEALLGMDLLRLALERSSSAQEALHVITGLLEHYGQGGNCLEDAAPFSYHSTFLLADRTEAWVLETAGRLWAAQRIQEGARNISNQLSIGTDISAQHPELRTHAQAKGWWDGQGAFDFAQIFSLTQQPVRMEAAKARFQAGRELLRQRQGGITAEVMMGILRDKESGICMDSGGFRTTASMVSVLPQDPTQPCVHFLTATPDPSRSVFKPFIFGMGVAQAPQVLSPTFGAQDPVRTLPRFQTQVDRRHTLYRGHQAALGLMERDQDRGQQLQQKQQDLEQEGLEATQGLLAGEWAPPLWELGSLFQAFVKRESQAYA
UniProt O60239: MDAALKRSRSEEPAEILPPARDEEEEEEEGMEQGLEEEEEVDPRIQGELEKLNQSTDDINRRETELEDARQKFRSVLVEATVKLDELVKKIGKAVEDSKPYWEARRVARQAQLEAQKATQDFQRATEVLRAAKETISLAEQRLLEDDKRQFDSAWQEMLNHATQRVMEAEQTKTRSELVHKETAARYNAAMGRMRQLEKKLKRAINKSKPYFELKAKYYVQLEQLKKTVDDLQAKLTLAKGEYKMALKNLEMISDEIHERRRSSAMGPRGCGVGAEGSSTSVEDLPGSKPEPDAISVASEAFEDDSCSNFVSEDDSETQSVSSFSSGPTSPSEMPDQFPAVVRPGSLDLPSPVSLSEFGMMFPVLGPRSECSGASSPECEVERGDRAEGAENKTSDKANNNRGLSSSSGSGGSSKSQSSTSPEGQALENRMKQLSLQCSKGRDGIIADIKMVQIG
UniProt Q5VWQ0: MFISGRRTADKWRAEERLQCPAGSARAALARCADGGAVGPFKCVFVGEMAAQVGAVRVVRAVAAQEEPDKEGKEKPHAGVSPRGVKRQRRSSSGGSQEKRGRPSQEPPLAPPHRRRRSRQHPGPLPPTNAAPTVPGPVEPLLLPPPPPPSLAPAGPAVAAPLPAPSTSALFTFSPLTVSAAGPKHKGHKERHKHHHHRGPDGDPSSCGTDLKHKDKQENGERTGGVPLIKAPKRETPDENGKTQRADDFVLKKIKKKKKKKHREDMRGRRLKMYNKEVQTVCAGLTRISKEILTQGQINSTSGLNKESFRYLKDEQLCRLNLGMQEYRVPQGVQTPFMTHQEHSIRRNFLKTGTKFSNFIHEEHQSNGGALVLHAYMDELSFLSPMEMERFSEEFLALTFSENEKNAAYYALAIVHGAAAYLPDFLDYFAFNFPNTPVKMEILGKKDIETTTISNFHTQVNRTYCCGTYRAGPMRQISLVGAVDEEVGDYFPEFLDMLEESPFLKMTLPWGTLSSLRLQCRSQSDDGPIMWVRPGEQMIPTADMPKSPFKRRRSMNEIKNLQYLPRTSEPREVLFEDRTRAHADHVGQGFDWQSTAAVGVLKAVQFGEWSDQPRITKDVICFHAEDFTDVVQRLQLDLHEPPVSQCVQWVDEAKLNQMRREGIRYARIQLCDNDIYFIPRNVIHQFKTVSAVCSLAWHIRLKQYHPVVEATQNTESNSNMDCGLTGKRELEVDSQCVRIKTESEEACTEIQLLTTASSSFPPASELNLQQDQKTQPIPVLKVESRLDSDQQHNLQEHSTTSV
UniProt Q9Y6B6: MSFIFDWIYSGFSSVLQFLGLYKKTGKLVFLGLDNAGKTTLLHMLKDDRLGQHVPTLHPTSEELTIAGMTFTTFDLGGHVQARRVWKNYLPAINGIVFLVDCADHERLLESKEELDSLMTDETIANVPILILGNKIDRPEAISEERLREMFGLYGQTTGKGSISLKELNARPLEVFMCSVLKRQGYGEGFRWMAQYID
UniProt P62070: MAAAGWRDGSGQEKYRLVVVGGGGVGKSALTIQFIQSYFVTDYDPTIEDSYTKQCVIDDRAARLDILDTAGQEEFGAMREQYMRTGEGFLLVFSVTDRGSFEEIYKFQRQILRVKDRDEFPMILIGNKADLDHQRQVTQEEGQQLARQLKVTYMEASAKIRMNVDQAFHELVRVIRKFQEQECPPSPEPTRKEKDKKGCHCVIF
UniProt O95104: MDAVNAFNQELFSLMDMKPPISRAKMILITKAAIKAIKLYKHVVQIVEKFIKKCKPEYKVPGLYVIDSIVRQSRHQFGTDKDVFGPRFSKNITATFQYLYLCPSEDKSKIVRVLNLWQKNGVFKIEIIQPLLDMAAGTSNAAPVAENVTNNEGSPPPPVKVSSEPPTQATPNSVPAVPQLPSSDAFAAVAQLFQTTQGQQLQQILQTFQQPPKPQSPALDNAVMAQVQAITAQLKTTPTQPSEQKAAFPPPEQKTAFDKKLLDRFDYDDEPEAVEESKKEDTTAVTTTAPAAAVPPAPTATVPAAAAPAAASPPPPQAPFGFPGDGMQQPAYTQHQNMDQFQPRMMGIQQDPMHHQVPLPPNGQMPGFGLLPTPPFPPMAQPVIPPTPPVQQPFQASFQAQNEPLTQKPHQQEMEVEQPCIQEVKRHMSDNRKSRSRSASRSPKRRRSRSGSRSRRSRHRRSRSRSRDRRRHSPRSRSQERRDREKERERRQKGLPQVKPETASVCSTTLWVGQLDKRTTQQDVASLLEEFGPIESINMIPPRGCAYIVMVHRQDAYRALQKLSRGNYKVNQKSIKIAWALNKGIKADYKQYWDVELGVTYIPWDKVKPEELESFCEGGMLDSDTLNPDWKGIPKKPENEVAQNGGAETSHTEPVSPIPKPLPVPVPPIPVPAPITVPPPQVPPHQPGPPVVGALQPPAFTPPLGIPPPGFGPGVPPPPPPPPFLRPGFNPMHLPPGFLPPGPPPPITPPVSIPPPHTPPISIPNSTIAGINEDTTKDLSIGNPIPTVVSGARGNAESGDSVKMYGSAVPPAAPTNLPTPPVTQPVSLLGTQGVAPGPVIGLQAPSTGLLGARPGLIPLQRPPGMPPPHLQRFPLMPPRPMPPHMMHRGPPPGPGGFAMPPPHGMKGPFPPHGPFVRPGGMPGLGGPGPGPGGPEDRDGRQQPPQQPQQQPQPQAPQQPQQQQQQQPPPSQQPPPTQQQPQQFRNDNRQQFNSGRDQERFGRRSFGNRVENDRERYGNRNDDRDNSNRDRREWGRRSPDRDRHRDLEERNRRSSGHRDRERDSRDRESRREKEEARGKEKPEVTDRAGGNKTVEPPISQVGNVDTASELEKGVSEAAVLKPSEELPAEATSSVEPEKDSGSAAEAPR
UniProt P23921: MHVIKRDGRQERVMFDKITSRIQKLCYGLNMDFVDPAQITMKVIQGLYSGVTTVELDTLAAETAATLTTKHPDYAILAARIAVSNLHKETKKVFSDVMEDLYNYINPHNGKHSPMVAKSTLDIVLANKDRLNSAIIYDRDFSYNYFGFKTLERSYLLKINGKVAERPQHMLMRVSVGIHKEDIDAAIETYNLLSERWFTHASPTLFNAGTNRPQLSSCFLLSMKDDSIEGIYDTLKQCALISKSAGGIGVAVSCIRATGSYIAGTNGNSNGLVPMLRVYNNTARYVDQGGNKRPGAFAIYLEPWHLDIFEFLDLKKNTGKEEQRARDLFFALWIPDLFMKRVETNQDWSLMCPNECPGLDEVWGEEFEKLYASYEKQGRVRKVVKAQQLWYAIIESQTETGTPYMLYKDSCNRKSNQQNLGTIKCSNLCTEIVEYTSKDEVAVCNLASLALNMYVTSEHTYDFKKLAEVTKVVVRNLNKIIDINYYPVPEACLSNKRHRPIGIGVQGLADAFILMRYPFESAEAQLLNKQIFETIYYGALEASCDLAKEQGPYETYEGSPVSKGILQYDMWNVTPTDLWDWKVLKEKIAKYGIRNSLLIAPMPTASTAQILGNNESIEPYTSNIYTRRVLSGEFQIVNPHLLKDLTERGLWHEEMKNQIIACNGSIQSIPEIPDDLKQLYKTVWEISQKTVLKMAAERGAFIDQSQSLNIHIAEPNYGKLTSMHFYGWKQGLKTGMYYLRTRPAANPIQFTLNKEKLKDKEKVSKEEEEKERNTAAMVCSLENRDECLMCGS
UniProt O75995: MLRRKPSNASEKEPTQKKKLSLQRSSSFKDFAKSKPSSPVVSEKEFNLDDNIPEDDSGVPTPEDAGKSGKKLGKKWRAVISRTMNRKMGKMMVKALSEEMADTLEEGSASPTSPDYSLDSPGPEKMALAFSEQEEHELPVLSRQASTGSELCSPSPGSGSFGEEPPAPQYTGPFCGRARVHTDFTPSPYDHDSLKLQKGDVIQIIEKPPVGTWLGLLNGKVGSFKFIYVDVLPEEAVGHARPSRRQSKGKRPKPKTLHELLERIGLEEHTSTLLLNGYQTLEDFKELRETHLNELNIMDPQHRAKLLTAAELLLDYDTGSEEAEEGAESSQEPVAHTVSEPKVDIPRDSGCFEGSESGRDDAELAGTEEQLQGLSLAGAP
UniProt Q9BQF6: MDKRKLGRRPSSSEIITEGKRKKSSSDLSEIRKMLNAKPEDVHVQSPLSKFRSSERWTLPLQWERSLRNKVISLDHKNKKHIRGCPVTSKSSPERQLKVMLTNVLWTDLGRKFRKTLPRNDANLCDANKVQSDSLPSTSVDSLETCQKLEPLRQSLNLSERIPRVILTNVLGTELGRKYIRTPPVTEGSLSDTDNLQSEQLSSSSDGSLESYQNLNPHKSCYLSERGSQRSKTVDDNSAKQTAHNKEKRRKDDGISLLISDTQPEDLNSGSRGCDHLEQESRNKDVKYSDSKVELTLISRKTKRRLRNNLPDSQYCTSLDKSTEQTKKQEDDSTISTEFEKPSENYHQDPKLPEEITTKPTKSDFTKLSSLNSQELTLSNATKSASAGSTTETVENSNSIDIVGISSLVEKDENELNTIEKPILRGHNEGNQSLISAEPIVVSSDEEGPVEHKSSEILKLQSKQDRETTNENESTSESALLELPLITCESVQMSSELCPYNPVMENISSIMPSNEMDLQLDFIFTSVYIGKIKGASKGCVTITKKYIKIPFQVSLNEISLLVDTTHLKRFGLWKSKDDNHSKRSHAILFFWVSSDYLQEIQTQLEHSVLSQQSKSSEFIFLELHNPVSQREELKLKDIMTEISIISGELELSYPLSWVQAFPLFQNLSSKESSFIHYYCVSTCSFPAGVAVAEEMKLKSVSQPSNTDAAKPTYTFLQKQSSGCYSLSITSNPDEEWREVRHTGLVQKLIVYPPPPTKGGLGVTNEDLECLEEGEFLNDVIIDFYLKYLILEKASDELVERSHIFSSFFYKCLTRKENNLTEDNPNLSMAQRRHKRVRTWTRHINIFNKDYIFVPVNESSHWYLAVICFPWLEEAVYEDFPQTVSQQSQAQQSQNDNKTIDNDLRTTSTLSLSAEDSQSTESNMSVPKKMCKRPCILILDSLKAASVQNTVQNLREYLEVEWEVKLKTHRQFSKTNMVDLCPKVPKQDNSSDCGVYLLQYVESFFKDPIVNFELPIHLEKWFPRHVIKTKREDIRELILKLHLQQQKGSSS

Target	dose-dependent thermal stabilisation call
RFLNB (UniProt Q8N5W9)	inactive: 0
SBF1 (UniProt O95248)	inactive: 0
SDE2 (UniProt Q6IQ49)	inactive: 0
SEPTIN2 (UniProt Q15019)	active: 1
SETD3 (UniProt Q86TU7)	active: 1
RETN (UniProt Q9HD89)	inactive: 0
RNF138 (UniProt Q8WVD3)	inactive: 0
RXRB (UniProt P28702)	inactive: 0
RPL13 (UniProt P26373)	inactive: 0
SETD7 (UniProt Q8WTS6)	inactive: 0
SH3BGRL (UniProt O75368)	inactive: 0
RSL1D1 (UniProt O76021)	active: 1
RIC1 (UniProt Q4ADV7)	inactive: 0
RNF219 (UniProt Q5W0B1)	inactive: 0
RPL36A (UniProt P83881)	inactive: 0
RNF146 (UniProt Q9NTX7)	inactive: 0
RUFY3 (UniProt Q7L099)	inactive: 0
RPL12 (UniProt P30050)	inactive: 0
RFX7 (UniProt Q2KHR2)	inactive: 0
RPS6KA1 (UniProt Q15418)	active: 1

Target	dose-dependent thermal stabilisation call
SDF2L1 (UniProt Q9HCN8)	inactive: 0
RNF214 (UniProt Q8ND24)	inactive: 0
SCRN2 (UniProt Q96FV2)	inactive: 0
SH3BP5 (UniProt O60239)	inactive: 0
RSBN1 (UniProt Q5VWQ0)	inactive: 0
RRAGA (UniProt Q7L523)	active: 1
SAR1B (UniProt Q9Y6B6)	inactive: 0
RRAS2 (UniProt P62070)	active: 1
RPSA (UniProt P08865)	inactive: 0
SCAF4 (UniProt O95104)	inactive: 0
SH3GLB1 (UniProt Q9Y371)	active: 1
RWDD4 (UniProt Q6NW29)	inactive: 0
RRM1 (UniProt P23921)	inactive: 0
RPUSD2 (UniProt Q8IZ73)	inactive: 0
RMND5A (UniProt Q9H871)	inactive: 0
SASH3 (UniProt O75995)	inactive: 0
SENP7 (UniProt Q9BQF6)	inactive: 0
RNF113A (UniProt O15541)	inactive: 0
RHEB (UniProt Q15382)	active: 1
SEC14L2 (UniProt O76054)	inactive: 0

Three entries from above, set out differently:
RNF214 (UniProt Q8ND24)
  dose-dependent thermal stabilisation call: inactive: 0
SCRN2 (UniProt Q96FV2)
  dose-dependent thermal stabilisation call: inactive: 0
RWDD4 (UniProt Q6NW29)
  dose-dependent thermal stabilisation call: inactive: 0

Source: the supplement of paper PMC7666118
